According to PubChem BioAssay AID1347076 (National Center for Advancing Translational Sciences (NCATS), 2019):
Hit rate of the full screen: of about 400,000 compounds, about 13,000 (3.2%) were called active. Inconclusive means that the source gave no clear call. Such entries were picked first, then a sample of the others. Calls follow the shape of the dose curve; as a rule, active = well fitted cell-killing curve with a large enough effect; inconclusive = small, poorly fitted or top-dose-only effect, or effect the other way; inactive = flat fitted curve, though single readings scatter. Potencies of inconclusive entries are doubtful fits and often do not repeat.

Assay: qHTS assay for MDR1-selective chemotherapeutics: Primary screen using the drug-selected MDR subline cells KB-V1; also: nearly all actives have a fitted effect of over 60% in size
Conditions: KB-V1 MDR cells viability, CellTiter-Glo, 72 h; series mostly up to 46.1 µM
In short: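 KB-V1, DMEM (no phenol red) + 10% FBS; cpd pin-transferred, titration series; 72 h, 37 degrees C; CellTiter-Glo, luminescence. Data normalized, curve-fit.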
Potency is read from the fitted curve at half-maximal effect.

Structure (SMILES)	Potency
CC1CCC(NC(=O)c2nc(Cn3ccc([N+](=O)[O-])n3)no2)CC1 (configuration not stated)	inconclusive: 25.9 µM [cytotoxic, single point]
COc1ccc(-n2nc(C(=O)Nc3ccccc3OC)c3c4ccccc4n(C)c3c2=O)cc1Cl	inactive
CCOc1ccc(NC(=O)CSc2nnc(-c3ccccc3Cl)n2Cc2ccco2)cc1	active: 20.6 µM
O=C1C(Nc2ccc(O)cc2)=C/C(=N/S(=O)(=O)c2cccs2)c2ccccc21	active: 13 µM
O=C(CN1C(=O)C2C3C=CC(C3)C2C1=O)Nc1nc(-c2ccccn2)cs1 (configuration not stated)	inconclusive: 0.92 µM [cytotoxic, partial curve, poor fit]
O=c1c2ccccc2c(C=Nc2ccc(Cl)cn2)c(O)n1-c1cc(Cl)ccc1N1CCOCC1	inactive
COC(=O)N/N=C/c1ccc(-c2ccccc2Cl)o1	active: 6.51 µM
Cc1ccc(O)c(Cc2cc(C)cc(Cc3cc(C)ccc3O)c2O)c1	inactive
CCCNC(=O)C1(C)CCCN(Cc2ccc(-c3ccccc3)o2)C1 (configuration not stated)	inactive
CCC(C)NC(=O)Cc1cn(C)c2ccccc12 (configuration not stated)	inconclusive: 29.1 µM [cytotoxic, single point]
CCOC(=O)C/C(=N\Nc1ncnc2ccccc12)c1ccccc1	active: 16.4 µM
CCOC(=O)C1=C(C)NC(=O)NC1/C=C\c1ccccc1 (configuration not stated)	inactive
CCn1c(N2CCN(S(=O)(=O)c3ccc(F)cc3)CC2)nc2ccccc21	active: 11.6 µM
Cc1ccc(S(=O)(=O)NCCC(=O)N2CCC(Cc3ccccc3)CC2)cc1	inconclusive: 11.6 µM [cytotoxic, partial curve]
COc1ccc(NC(=O)C[C@H]2C(=O)N(CCc3ccccc3)C[C@@H]2Cc2ccccc2)cc1	inconclusive: 29.1 µM [cytotoxic, partial curve, poor fit]
Cc1cccc(N2CCN(C(c3ccccc3)c3nnnn3C(C)(C)C)CC2)c1C (configuration not stated)	active: 9.2 µM
COC(=O)CNC(c1ccccc1)c1cc(Br)ccc1NC(=O)CNC(=O)OCc1ccccc1 (configuration not stated)	inconclusive: 29.1 µM [cytotoxic, single point]
C[C@@H]1CN([C@H](C)CO)C(=O)c2cc(NC(=O)Cc3cn(C)c4ccccc34)ccc2O[C@H]1CN(C)C(=O)Nc1ccc2c(c1)OCO2	inconclusive: 29.1 µM [rising, single point]
O=C(NC1CCCCC1)c1ccccc1NC(=O)C1CC(=O)N(c2ccccc2)C1 (configuration not stated)	inactive
Cc1ccc(CN2CCSc3ccc(C(=O)N4CCN(c5ncccn5)CC4)cc32)cc1	active: 20.6 µM
CCOC(=O)/C=C1\SCC(=O)N1CC(=O)NC(C)c1ccc(F)cc1 (configuration not stated)	inconclusive: 23.1 µM [cytotoxic, single point]
CC(=O)N1N=C(c2cccc(Br)c2)OC12CCCC2	inconclusive: 14.6 µM [cytotoxic, partial curve, poor fit]
Cc1nn(-c2ccccc2)nc1C(=O)Nc1cccc(C(=O)NC2CC2)c1	inconclusive: 16.4 µM [cytotoxic, single point]

Structure (SMILES)	Potency
COc1ccc(-c2cn3nc(N4CCCC(C(=O)Nc5ccc(C)c(C)c5)C4)sc3n2)cc1 (configuration not stated)	inactive
C/C(=N\NC(=O)c1ccc(CN(C)S(=O)(=O)c2ccc(C)cc2)cc1)c1ccc(OC(F)F)cc1	active: 2.59 µM
CC(=O)OC(C)(C)/C=C/C(=O)[C@](C)(O)C1[C@H](O)C[C@@]2(C)C3CC=C4C(C=C(O[C@@H]5O[C@H](CO)[C@@H](O)[C@H](O)[C@H]5O)C(=O)C4(C)C)[C@]3(C)C(=O)C[C@]12C (some centres not stated)	inconclusive: 29.1 µM [cytotoxic, single point]
CN(C)c1ccc(-c2ccnc3c2CC(C)(C(=O)Nc2ccc(Cl)cc2)O3)cc1 (configuration not stated)	inactive
Cc1ccc(-c2nnc(SCC(=O)N/N=C/c3ccc(C)s3)n2-c2ccc(C)cc2)cc1	inconclusive: 18.4 µM [cytotoxic, partial curve]
COc1ccccc1NS(=O)(=O)c1ccc(Cl)c(NC(=S)NC(=O)C2CCCC2)c1	inconclusive: 20.6 µM [cytotoxic, partial curve, poor fit]
Cc1cc(C)c2sc(N(CCCN(C)C)C(=O)c3ccc(S(=O)(=O)N(C)C4CCCCC4)cc3)nc2c1	inconclusive: 23.1 µM [cytotoxic, partial curve, poor fit]
COc1ccc(C(=O)NNC(=O)c2ccc(C(C)(C)C)cc2)cc1	inconclusive: 13 µM [rising, partial curve]
CCn1c(SCc2nc3sc(C(=O)O)c(C)c3c(=O)[nH]2)nc2ccccc21	inconclusive: 16.4 µM [rising, single point]
O=C(NCc1ccon1)C1CCC(=O)N(Cc2cccc(C(F)(F)F)c2)C1 (configuration not stated)	inactive
Cc1ccc(NC(=O)CSc2nc(=O)n(CCCN3CCOCC3)c3c2CCCC3)c(C)c1	inactive
CC(NC(=S)NCc1ccc(F)cc1)C12CC3CC(CC(C3)C1)C2 (configuration not stated)	inconclusive: 29.1 µM [cytotoxic, single point]
Cc1ccc(S(=O)(=O)Cc2cc(F)c([N+](=O)[O-])cc2[N+](=O)[O-])cc1	inconclusive: 18.4 µM [cytotoxic, single point]
CCCCc1ccc(S(=O)(=O)NC(=O)C2(C)CCN2C(=O)CCc2cccs2)cc1 (configuration not stated)	inactive
Cc1cc(Oc2ccc(Br)cc2)nc(SCC(=O)c2ccccc2)n1	inconclusive: 5.17 µM [cytotoxic, partial curve]
C[C@H](CO)N1C[C@H](C)[C@@H](CN(C)Cc2ccc3c(c2)OCO3)Oc2cc(Br)ccc2S1(=O)=O	inactive
CCCC(=O)Nc1ccc2c(c1)nc(CN1CCN(C(=O)OCC)CC1)n2CC	inactive
COC(=O)c1c(SCC(=O)Nc2cc(C)cc(C)c2)[nH]c2ccccc2c1=O	inactive
Cc1ccc(C(=O)C(C)Oc2cccc(NC(=O)c3ccco3)c2)cc1 (configuration not stated)	inconclusive: 9.2 µM [cytotoxic, partial curve]
CC(=O)Nc1ccc(OC(=O)c2c(-c3ccccc3Cl)noc2C)cc1	inconclusive: 8.2 µM [cytotoxic, partial curve]
S=c1[nH]c2ccc(Cc3ccc4[nH]c(=S)[nH]c4c3)cc2[nH]1	inconclusive: 18.4 µM [rising, single point]
COc1ccc(CN(C(=O)/C=C/C(=O)c2ccc(OC)cc2O)C(C(=O)NC2CCCCC2)c2ccncc2)cc1 (configuration not stated)	active: 2.59 µM
Cc1c(N=C2NN=C(c3ccc(Cl)cc3)CS2)c(=O)n(-c2ccccc2)n1C	inconclusive: 2.59 µM [cytotoxic, single point]

Structure (SMILES)	Potency
Cn1c(C(=O)N(Cc2ccccc2)Cc2cccs2)cc2sccc21	active: 14.6 µM
CC(C)(C)C(=O)N1CCC(O)(CS(=O)(=O)c2ccc(Cl)c(Cl)c2)CC1	inconclusive: 25.9 µM [cytotoxic, single point]
CCc1nc2ccccc2c(C(=O)OCC(=O)Nc2cccc(S(=O)(=O)N3CCOCC3)c2)c1C	active: 6.51 µM
COc1ccccc1C(=O)NCCn1cc(SCC(=O)Nc2cc(C)on2)c2ccccc21	active: 8.2 µM
Nc1cccc2nc3ccccc3cc12	inactive
CN(C(=O)c1cccc(NC(=O)Cc2ccc(NC(=O)C3CCCN(S(=O)(=O)c4cccc([N+](=O)[O-])c4)C3)cc2)c1)C1CCCCC1 (configuration not stated)	inactive
COc1ccc2c(Cl)c(C(=O)NN)sc2c1	inconclusive: 20.6 µM [cytotoxic, single point]
COc1ccc(S(=O)(=O)N2CCN(C(=O)NC3CCCCC3)CC2)cc1OC	active: 16.4 µM
CCCC(=O)Nc1ccc2c(c1)C(=O)N(C)C[C@@H](OC)[C@H](C)CN(Cc1ccc(-c3ccccn3)cc1)[C@@H](C)CO2	inconclusive: 9.2 µM [cytotoxic, partial curve, poor fit]
O=C(CN1C2=NCCN2c2ccccc21)C12CC3CC(CC(C3)C1)C2	inconclusive: 13 µM [cytotoxic, partial curve]
Cc1c(Br)c([N+](=O)[O-])nn1CCCC(=O)NC(C)c1ccccc1 (configuration not stated)	inconclusive: 6.51 µM [cytotoxic, partial curve, poor fit]
CCCCC(c1nnnn1CC1CCCO1)N1CCN(c2cc(Cl)ccc2C)CC1 (configuration not stated)	inconclusive: 20.6 µM [cytotoxic, single point]
COc1ccc(N2CCN(C(CNC(=O)C(=O)NCCCN(C)C)c3cccnc3)CC2)cc1 (configuration not stated)	inactive
COc1ccc([C@H]2CC(=O)C[C@@H](CCn3cc(CCc4ccccc4)nn3)O2)cc1	inconclusive: 14.6 µM [cytotoxic, partial curve, poor fit]
CN(C(=O)CSc1nnnn1-c1ccccc1)C1CCCCC1	inactive
COc1ccccc1NC(=O)c1cc(-c2ccc(C)o2)nc2ccccc12	inactive
COc1cc(C(=O)OCC#N)ccc1OCc1c(C)noc1C	inconclusive: 14.6 µM [cytotoxic, partial curve]
Cc1ccc(S(=O)(=O)N(CC(=O)Nc2cccc(C(F)(F)F)c2)C(=O)N2CCN(C)CC2)cc1	inconclusive: 6.51 µM [rising, partial curve]
O=C(/C=C/c1ccc([N+](=O)[O-])cc1)N(c1ccccn1)C1CCCCC1	inactive
CC(NC(=O)Cn1ncc(Cl)c(Cl)c1=O)C12CC3CC(CC(C3)C1)C2 (configuration not stated)	inconclusive: 29.1 µM [cytotoxic, single point]
Cc1cc(C)nc(-n2nc(C)cc2NC(=O)CNCc2ccccc2)n1	inconclusive: 4.11 µM [cytotoxic, full curve]

2 of the compounds above, field by field:
CCCC(=O)Nc1ccc2c(c1)C(=O)N(C)C[C@@H](OC)[C@H](C)CN(Cc1ccc(-c3ccccn3)cc1)[C@@H](C)CO2
  Potency: inconclusive: 9.2 µM [cytotoxic, partial curve, poor fit]
O=C(CN1C2=NCCN2c2ccccc21)C12CC3CC(CC(C3)C1)C2
  Potency: inconclusive: 13 µM [cytotoxic, partial curve]
